This is a selection; strong and weak results do not stand in their true shares. At the low end of the ranking the order means little.
Assays:
Assay in all cases: DAPPL (digital affinity profiling via proximity ligation, sequencing)
Conditions in all cases: 10 mM Tris-HCl pH 7.5, 50 mM NaCl, 1 mM DTT, 4% glycerol, room temperature, 30 min; GST-TFs on glutathione beads, 16-mer random dsDNA library, 0.1% …; high values mean tight binding; double strand, one strand shown; scale: fold enrichment (6-mer frequency, TF over GST control)
[1] = biological target: T1, ELK1 (UniProt P19419)
T1 sequence: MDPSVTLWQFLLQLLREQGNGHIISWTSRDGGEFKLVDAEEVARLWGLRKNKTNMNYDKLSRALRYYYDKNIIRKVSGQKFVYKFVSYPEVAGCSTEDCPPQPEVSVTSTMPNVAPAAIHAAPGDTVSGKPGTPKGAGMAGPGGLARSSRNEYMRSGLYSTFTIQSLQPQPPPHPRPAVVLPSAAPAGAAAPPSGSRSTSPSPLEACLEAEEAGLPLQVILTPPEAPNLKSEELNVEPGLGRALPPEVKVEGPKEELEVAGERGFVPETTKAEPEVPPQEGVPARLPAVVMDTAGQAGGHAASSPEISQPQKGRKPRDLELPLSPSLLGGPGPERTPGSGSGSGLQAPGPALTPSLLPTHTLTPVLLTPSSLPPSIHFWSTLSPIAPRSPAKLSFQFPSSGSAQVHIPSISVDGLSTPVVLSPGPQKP

[2] = biological target: T2, ELK3 (UniProt P41970)
T2 sequence: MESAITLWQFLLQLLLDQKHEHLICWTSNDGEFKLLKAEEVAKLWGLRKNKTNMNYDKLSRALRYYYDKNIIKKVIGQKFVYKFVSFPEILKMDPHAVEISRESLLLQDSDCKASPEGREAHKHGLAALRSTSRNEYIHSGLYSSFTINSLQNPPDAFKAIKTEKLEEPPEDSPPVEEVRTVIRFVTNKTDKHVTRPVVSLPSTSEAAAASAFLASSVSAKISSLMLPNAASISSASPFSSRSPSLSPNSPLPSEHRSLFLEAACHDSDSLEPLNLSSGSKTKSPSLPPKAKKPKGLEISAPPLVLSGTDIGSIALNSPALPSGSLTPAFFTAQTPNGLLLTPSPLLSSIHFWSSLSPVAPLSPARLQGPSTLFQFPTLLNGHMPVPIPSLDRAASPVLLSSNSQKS

[3] = biological target: T3, SPIC (UniProt Q8N5J4)
T3 sequence: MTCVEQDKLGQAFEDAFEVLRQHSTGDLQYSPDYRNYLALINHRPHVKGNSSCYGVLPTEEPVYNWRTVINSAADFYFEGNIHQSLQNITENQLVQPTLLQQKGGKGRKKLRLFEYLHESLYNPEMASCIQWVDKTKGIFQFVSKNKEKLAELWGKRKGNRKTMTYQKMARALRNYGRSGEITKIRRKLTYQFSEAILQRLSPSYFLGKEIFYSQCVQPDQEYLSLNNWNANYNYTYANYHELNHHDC

[4] = biological target: T4, ETS2 (UniProt P15036)
T4 sequence: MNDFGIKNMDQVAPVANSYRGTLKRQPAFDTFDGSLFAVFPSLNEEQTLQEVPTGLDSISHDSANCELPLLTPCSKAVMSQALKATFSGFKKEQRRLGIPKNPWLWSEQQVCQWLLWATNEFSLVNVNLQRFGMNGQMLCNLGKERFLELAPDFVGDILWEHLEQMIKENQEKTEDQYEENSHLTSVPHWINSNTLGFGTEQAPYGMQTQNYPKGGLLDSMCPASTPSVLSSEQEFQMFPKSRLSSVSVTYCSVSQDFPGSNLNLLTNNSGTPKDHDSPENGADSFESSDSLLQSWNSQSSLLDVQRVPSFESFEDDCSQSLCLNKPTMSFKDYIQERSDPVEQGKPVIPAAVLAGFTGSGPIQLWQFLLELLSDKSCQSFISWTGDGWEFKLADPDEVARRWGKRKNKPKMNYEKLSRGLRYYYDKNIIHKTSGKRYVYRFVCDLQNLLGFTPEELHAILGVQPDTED

[5] = biological target: T5, ETV3 (UniProt P41162-2)
T5 sequence: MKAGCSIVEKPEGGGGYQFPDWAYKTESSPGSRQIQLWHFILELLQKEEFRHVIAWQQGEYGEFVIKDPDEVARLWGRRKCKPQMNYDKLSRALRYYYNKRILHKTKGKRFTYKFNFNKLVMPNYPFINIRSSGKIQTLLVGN

Row | Sequence | binding signal [1] | binding signal [2] | binding signal [3] | binding signal [4] | binding signal [5]
1 | GACGTG | 0.335 | 0.342 | 0.355 | 0.355 | 0.347
2 | GACACC | 0.942 | 0.864 | 0.895 | 0.902 | 0.961
3 | AGTGCG | 0.886 | 0.894 | 0.918 | 0.834 | 0.874
4 | AGCAGG | 0.907 | 0.953 | 0.823 | 0.946 | 0.936
5 | CACGAG | 0.826 | 0.957 | 0.841 | 0.834 | 0.813
6 | GAGTAA | 0.572 | 0.65 | 0.556 | 0.572 | 0.537
7 | GCAACG | 0.998 | 0.94 | 1 | 0.96 | 0.974
8 | GACGAA | 0.78 | 0.877 | 0.802 | 0.877 | 0.772
9 | GGACTA | 0.9 | 0.853 | 0.804 | 0.887 | 0.866
10 | GTCATA | 0.741 | 0.787 | 0.744 | 0.785 | 0.705
11 | CGGGTT | 0.896 | 0.737 | 1 | 0.971 | 0.945
12 | AATCGG | 0.532 | 0.55 | 0.569 | 0.518 | 0.578
13 | AGGACG | 0.43 | 0.501 | 0.483 | 0.495 | 0.489
14 | GTGTGT | 0.484 | 0.543 | 0.454 | 0.586 | 0.51
15 | GCTGTC | 0.9 | 0.757 | 0.984 | 0.886 | 0.966
16 | CGTGAA | 0.427 | 0.467 | 0.455 | 0.447 | 0.468
17 | GAGTTC | 0.771 | 0.85 | 0.767 | 0.764 | 0.713
18 | CGAGTC | 0.503 | 0.655 | 0.497 | 0.512 | 0.52
19 | CAGTCG | 0.176 | 0.183 | 0.202 | 0.176 | 0.179
20 | CGGGTC | 0.668 | 0.66 | 0.715 | 0.721 | 0.752
21 | AGGGTA | 0.854 | 0.876 | 0.905 | 0.877 | 0.843
22 | GAGTAC | 0.546 | 0.553 | 0.538 | 0.52 | 0.58
23 | GTGTAT | 0.896 | 0.848 | 0.939 | 0.946 | 0.925
24 | GTCTGT | 0.888 | 0.776 | 0.967 | 0.946 | 0.878
25 | CGGACG | 0.433 | 0.46 | 0.343 | 0.454 | 0.46
26 | GCATGC | 0.854 | 0.753 | 1.07 | 0.838 | 0.806
27 | GTAAAG | 0.934 | 0.997 | 0.911 | 0.951 | 0.947
28 | GAGAGA | 0.406 | 0.505 | 0.401 | 0.413 | 0.419

A second format for part of the listing above.
Row,Sequence,binding signal [1],binding signal [2],binding signal [3],binding signal [4],binding signal [5]
1,GACGTG,0.335,0.342,0.355,0.355,0.347
2,GACACC,0.942,0.864,0.895,0.902,0.961
4,AGCAGG,0.907,0.953,0.823,0.946,0.936
8,GACGAA,0.78,0.877,0.802,0.877,0.772
9,GGACTA,0.9,0.853,0.804,0.887,0.866
13,AGGACG,0.43,0.501,0.483,0.495,0.489
18,CGAGTC,0.503,0.655,0.497,0.512,0.52
20,CGGGTC,0.668,0.66,0.715,0.721,0.752
22,GAGTAC,0.546,0.553,0.538,0.52,0.58
23,GTGTAT,0.896,0.848,0.939,0.946,0.925
25,CGGACG,0.433,0.46,0.343,0.454,0.46
27,GTAAAG,0.934,0.997,0.911,0.951,0.947
28,GAGAGA,0.406,0.505,0.401,0.413,0.419

Part of the list above, tab-delimited:
Row	Sequence	binding signal [1]	binding signal [2]	binding signal [3]	binding signal [4]	binding signal [5]
25	CGGACG	0.433	0.46	0.343	0.454	0.46
26	GCATGC	0.854	0.753	1.07	0.838	0.806

Remaining list, next part.

Row | Sequence | binding signal [1] | binding signal [2] | binding signal [3] | binding signal [4] | binding signal [5]
29 | AGCAGT | 0.719 | 0.803 | 0.69 | 0.717 | 0.711
30 | GGGGAA | 0.722 | 0.743 | 0.873 | 0.719 | 0.71
31 | GCCAGG | 0.43 | 0.448 | 0.421 | 0.428 | 0.462
32 | GGGGAG | 0.416 | 0.409 | 0.458 | 0.413 | 0.413
33 | GTCGCA | 0.833 | 0.645 | 0.739 | 0.75 | 0.718
34 | CAGCGA | 0.894 | 0.8 | 0.976 | 0.869 | 0.818
35 | GACGCG | 0.597 | 0.616 | 0.533 | 0.593 | 0.631
36 | TCGTGG | 0.758 | 0.725 | 0.654 | 0.778 | 0.74
37 | GAGTGA | 0.42 | 0.407 | 0.342 | 0.383 | 0.375
38 | GCCGGC | 0.835 | 0.844 | 0.866 | 0.832 | 0.795
39 | AAGGAC | 0.876 | 0.849 | 0.835 | 0.796 | 0.909
40 | GAACAG | 0.963 | 0.925 | 0.95 | 0.975 | 1.05
41 | AGAGAG | 0.523 | 0.548 | 0.57 | 0.466 | 0.484
42 | ATAGAG | 0.925 | 0.921 | 0.937 | 0.859 | 0.935
43 | GGTGCA | 0.833 | 0.813 | 0.728 | 0.824 | 0.949
44 | GGTAAG | 0.776 | 0.721 | 0.687 | 0.76 | 0.712
45 | CGGTCC | 0.944 | 1.03 | 0.984 | 0.952 | 0.892
46 | GCGGTA | 0.828 | 0.651 | 0.845 | 0.714 | 0.781
47 | CGGCGT | 0.904 | 0.893 | 0.825 | 0.739 | 0.867
48 | GTGGGC | 0.703 | 0.79 | 0.812 | 0.797 | 0.751
49 | GAAGAG | 0.928 | 0.954 | 0.9 | 0.905 | 0.865
50 | ACGGGA | 0.504 | 0.592 | 0.518 | 0.533 | 0.56
51 | TGAGCC | 0.845 | 0.801 | 0.896 | 0.893 | 0.895
52 | CGAGAC | 0.544 | 0.616 | 0.605 | 0.573 | 0.546
53 | GGGTAG | 0.669 | 0.654 | 0.672 | 0.654 | 0.66
54 | TCGTGC | 0.752 | 0.807 | 0.748 | 0.776 | 0.823
55 | AGGTCA | 0.753 | 0.76 | 0.681 | 0.694 | 0.773
